Experimental data published in article PMC7359353, “Rab27a co-ordinates actin-dependent transport by controlling organelle-associated motors and track assembly proteins” (Nature Communications, 2020).
No constants are given. Whether binding was seen depends on the method and setting. Binding seen in cells or lysates may run through a third protein. These calls come from enrichment with a bait or labelling near it, and not all partners need be listed.

Sequences of proteins named here, by UniProt entry; tags and fusion partners are left off. A change or cut given only in a name is not applied to a line headed by its entry. A line that says so, or that is headed by a name, gives the form on record, which may keep a tag or linker.
GFP-SPIRE1 (human) (Q08AE8-2, form named): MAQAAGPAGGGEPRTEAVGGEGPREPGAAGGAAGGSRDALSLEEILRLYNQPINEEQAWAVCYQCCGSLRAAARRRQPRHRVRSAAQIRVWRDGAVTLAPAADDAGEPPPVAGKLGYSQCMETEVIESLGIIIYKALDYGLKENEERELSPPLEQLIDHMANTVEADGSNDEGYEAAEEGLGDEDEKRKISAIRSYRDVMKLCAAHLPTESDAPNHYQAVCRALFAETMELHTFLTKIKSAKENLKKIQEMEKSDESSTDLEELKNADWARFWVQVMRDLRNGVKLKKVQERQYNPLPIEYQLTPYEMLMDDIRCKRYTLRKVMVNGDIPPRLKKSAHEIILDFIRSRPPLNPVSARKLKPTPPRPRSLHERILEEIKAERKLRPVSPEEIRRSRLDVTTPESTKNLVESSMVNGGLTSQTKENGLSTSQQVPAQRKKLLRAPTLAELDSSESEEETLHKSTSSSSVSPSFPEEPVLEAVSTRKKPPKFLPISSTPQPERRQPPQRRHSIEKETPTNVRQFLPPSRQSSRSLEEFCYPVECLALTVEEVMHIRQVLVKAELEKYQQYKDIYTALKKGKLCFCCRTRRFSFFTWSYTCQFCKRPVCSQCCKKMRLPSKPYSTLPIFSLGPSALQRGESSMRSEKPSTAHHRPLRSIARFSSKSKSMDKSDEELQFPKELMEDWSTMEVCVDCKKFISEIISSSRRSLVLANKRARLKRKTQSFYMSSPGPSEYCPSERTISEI

Target: T1, endogenous Rab27a (mouse (endogenous in B16-F1)) (UniProt Q9ERI2)
T1 sequence: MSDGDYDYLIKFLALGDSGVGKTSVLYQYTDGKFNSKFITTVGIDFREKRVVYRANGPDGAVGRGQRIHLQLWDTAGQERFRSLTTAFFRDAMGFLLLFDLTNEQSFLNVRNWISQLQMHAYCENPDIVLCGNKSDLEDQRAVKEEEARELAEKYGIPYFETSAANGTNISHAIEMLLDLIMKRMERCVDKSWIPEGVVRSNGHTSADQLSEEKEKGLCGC
Test: affinity purification with mass spectrometry; endogenous Rab27a immunoprecipitated with goat anti-Rab27a antibodies on protein A/G resin from lysates of B16-F1 cells expressing GFP-hsSPIRE1; 20 mM Tris-HCl pH 7.5, 50 mM NaCl, 1 mM EGTA, 1% CHAPS, 1 mM GTP; overnight at 4 °C; co-precipitating proteins identified by mass spectrometry

## GFP-SPIRE1 (human) (from UniProt Q08AE8-2 1-742)
  binding: binds
